Some entries share one result that the patent states for a list of compounds. For at least one compound, name, drawing or mass did not settle the structure.
Tests used:
Format in all cases: in vivo
[1] = tested on: wheat rust fungus (Puccinia recondita); experiment: Test Example 2: wheat rust control by foliar spray on potted wheat; settings: 500 ppm spray on wheat (SHIROGANE); inoculated 5 days after spraying; assessed after 1 + 8 days
[2] = tested on: barley net blotch fungus (Pyrenophora teres); experiment: Test Example 3: barley net blotch control by foliar spray on potted barley; settings: 500 ppm spray on barley (NISHINOHOSHI); inoculated after 2 days; assessed after 3 + 7 days
[3] = tested on: rice blast fungus (Magnaporthe grisea); settings: 500 ppm spray on rice (NIHONBARE); in contact with infected seedlings 6 days, high humidity

Compound | area of lesion spots on the treated plant relative to that on an untreated plant [1] [%] | area of lesion spots on the treated plant relative to that on an untreated plant [2] [%] | lesion areas on the treated plant with respect to the lesion area on the non-treated plant [3] [%]
Cc1ccc(-c2ccc(OCc3c(C)cccc3-n3nnn(C)c3=O)c(C)c2)c(C)c1 [compound 5] | ≤ 30 | ≤ 30 | –
COc1cccc(-n2nnn(C)c2=O)c1COc1ccc(-c2ccccc2Cl)cc1C [compound 9] | ≤ 30 | ≤ 30 | ≤ 30
COc1cccc(-n2nnn(C)c2=O)c1COc1ccc(-c2cccc(C(C)(C)C)c2)cc1C [compound 14] | ≤ 30 | ≤ 30 | –
COc1cccc(-n2nnn(C)c2=O)c1COc1ccc(-c2ccccc2F)cc1C [compound 23] | ≤ 30 | ≤ 30 | ≤ 30
Cc1cc(-c2cccc(Cl)c2)ccc1OCc1c(C2CC2)cccc1-n1nnn(C)c1=O [compound 26] | ≤ 30 | ≤ 30 | –
Cc1cc(OCc2c(C)cccc2-n2nnn(C)c2=O)ccc1-c1ccccc1 [compound 29] | ≤ 30 | ≤ 30 | ≤ 30
Cc1cccc(-c2ccc(OCc3c(C)cccc3-n3nnn(C)c3=O)cc2C)c1 [compound 33] | ≤ 30 | ≤ 30 | ≤ 30
COc1cccc(-n2nnn(C)c2=O)c1COc1ccc(-c2ccc(C)cc2C)cc1C [compound 36] | ≤ 30 | ≤ 30 | –
COc1cccc(-n2nnn(C)c2=O)c1COc1ccc(-c2cc(C)c(C)cc2C)cc1C [compound 44] | ≤ 30 | ≤ 30 | –
COc1cccc(-n2nnn(C)c2=O)c1COc1ccc(-c2cccc3ccccc23)cc1C [compound 46] | ≤ 30 | ≤ 30 | –
COc1ccc(-c2ccc(OCc3c(C)cccc3-n3nnn(C)c3=O)cc2OC)cc1 [compound 53] | ≤ 30 | – | –
CCc1cccc(-n2nnn(C)c2=O)c1COc1ccc(Oc2ccccc2)cc1C [compound 66] | ≤ 30 | ≤ 30 | ≤ 30
Cc1cc(Oc2ccccn2)ccc1OCc1c(C)cccc1-n1nnn(C)c1=O [compound 75] | ≤ 30 | ≤ 30 | –
CCN(c1ccccc1)c1ccc(OCc2c(C)cccc2-n2nnn(C)c2=O)c(C)c1 [compound 79] | ≤ 30 | ≤ 30 | ≤ 30
Cc1cc(C(O)c2ccccc2)ccc1OCc1c(C)cccc1-n1nnn(C)c1=O (centres unmarked) [compound 80] | – | ≤ 30 | ≤ 30
COC(C)c1ccc(OCc2c(C)cccc2-n2nnn(C)c2=O)c(C)c1 (centres unmarked) [compound 85] | ≤ 30 | ≤ 30 | ≤ 30
COc1cccc(-n2nnn(C)c2=O)c1COc1ccc(Oc2ccccc2)cc1C [compound 89] | ≤ 30 | ≤ 30 | ≤ 30

Compound | area of lesion spots on the treated plant relative to that on an untreated plant [1] [%] | area of lesion spots on the treated plant relative to that on an untreated plant [2] [%] | lesion areas on the treated plant with respect to the lesion area on the non-treated plant [3] [%]
Cc1cc(CCc2ccccc2)ccc1OCc1c(C)cccc1-n1nnn(C)c1=O [compound 91] | ≤ 30 | ≤ 30 | ≤ 30
Cc1cc(C2CC2)ccc1OCc1c(C)cccc1-n1nnn(C)c1=O [compound 100] | – | ≤ 30 | ≤ 30
CCCCN(C)C(=O)c1ccc(OCc2c(OC)cccc2-n2nnn(C)c2=O)c(C)c1 [compound 102] | ≤ 30 | ≤ 30 | –
CCCC(C)c1ccc(OCc2c(C)cccc2-n2nnn(C)c2=O)c(C)c1 (centres unmarked) [compound 106] | – | ≤ 30 | ≤ 30
CCOC(C)c1ccc(OCc2c(C)cccc2-n2nnn(C)c2=O)c(C)c1 (centres unmarked) [compound 110] | – | ≤ 30 | ≤ 30
COc1ccc(-c2c(F)cc(OCc3c(C)cccc3-n3nnn(C)c3=O)cc2F)cc1 [compound 115] | ≤ 30 | ≤ 30 | –
COc1ccc(-c2cc(C)c(OCc3c(C)cccc3-n3nnn(C)c3=O)cc2C)cc1 [compound 121] | – | ≤ 30 | ≤ 30
Cc1cc(-c2ccccc2C#N)c(C)cc1OCc1c(C)cccc1-n1nnn(C)c1=O [compound 122] | ≤ 30 | ≤ 30 | ≤ 30
COc1ccccc1-c1cc(C)c(OCc2c(C)cccc2-n2nnn(C)c2=O)cc1C [compound 123] | – | ≤ 30 | ≤ 30
Cc1cccc(-n2nnn(C)c2=O)c1COc1ccc(-c2ccccc2)cc1C(F)(F)F [compound 132] | – | ≤ 30 | ≤ 30
CCc1cccc(-n2nnn(C)c2=O)c1COc1cc(C)c(-c2ccccc2C#N)cc1C [compound 136] | ≤ 30 | ≤ 30 | ≤ 30
CCc1cccc(-n2nnn(C)c2=O)c1COc1cc(C)c(-c2ccccc2)cc1C [compound 137] | – | ≤ 30 | ≤ 30
CCc1cccc(-n2nnn(C)c2=O)c1COc1cc(C)c(-c2ccccc2F)cc1C [compound 139] | – | ≤ 30 | ≤ 30
COc1cccc(-n2nnn(C)c2=O)c1COc1cc(C)c(-c2ccccc2C#N)cc1C [compound 140] | ≤ 30 | ≤ 30 | ≤ 30
Cc1cc(-c2ccccc2F)c(C)cc1OCc1c(C)cccc1-n1nnn(C)c1=O [compound 143] | ≤ 30 | – | ≤ 30
Cc1cc(-c2ccccc2C)c(C)cc1OCc1c(C)cccc1-n1nnn(C)c1=O [compound 144] | ≤ 30 | ≤ 30 | ≤ 30
Cc1cc(-c2ccccc2C(F)(F)F)c(C)cc1OCc1c(C)cccc1-n1nnn(C)c1=O [compound 145] | ≤ 30 | ≤ 30 | –

From patent publication US9512090B2, “Tetrazolinone compound and use thereof” (Sumitomo Chemical Company, Limited, priority 2013, dated 2016)
